For the assay, the target named is T1, KLK8 (UniProt O60259 33-260).
T1 construct: Kallikrein 8 (KLK8); construct and source are in the Supporting Information
T1 sequence (looked up): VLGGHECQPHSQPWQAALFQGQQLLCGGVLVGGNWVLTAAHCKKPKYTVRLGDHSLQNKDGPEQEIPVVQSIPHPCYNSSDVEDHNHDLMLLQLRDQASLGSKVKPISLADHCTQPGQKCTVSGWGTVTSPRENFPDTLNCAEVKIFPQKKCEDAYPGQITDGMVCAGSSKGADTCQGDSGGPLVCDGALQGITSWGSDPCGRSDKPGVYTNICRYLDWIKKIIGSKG
As to the kind of experiment: enzyme inhibition assay (fluorogenic substrate); selectivity: inhibition of KLK7, KLK8 or KLK14 activity by the peptide, n = 3; substrates and conditions in the Supporting Information; both purified.

Results are given in words; binding and its absence hold for the method and conditions named.

As for GFCTRSNPPECWPN (head-to-tail cyclised backbone; oxidised (disulfide)) [LEKTI-grafted SFTI analogue, lead 7], the binding entry is “no binding (tested: >1 μm)”.
